This passage reports binding results from paper PMC5041916.

Amino acid sequences for entries named in this document (tags omitted).
UniProt P15311: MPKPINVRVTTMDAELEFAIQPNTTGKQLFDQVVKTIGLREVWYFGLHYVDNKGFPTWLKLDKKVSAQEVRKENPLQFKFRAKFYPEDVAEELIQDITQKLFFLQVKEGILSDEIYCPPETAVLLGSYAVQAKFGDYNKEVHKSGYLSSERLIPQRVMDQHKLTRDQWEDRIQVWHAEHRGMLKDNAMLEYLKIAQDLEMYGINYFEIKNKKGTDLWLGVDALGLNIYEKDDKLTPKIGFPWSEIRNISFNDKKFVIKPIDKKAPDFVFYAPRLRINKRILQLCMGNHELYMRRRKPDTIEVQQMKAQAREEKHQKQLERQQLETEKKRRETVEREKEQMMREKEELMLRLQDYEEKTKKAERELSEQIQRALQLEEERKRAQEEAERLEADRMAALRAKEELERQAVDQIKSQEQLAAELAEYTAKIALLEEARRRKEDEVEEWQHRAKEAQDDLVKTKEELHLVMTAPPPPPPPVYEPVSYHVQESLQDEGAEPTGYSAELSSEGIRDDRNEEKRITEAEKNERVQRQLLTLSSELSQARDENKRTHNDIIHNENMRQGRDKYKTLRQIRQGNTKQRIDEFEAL
UniProt P35241: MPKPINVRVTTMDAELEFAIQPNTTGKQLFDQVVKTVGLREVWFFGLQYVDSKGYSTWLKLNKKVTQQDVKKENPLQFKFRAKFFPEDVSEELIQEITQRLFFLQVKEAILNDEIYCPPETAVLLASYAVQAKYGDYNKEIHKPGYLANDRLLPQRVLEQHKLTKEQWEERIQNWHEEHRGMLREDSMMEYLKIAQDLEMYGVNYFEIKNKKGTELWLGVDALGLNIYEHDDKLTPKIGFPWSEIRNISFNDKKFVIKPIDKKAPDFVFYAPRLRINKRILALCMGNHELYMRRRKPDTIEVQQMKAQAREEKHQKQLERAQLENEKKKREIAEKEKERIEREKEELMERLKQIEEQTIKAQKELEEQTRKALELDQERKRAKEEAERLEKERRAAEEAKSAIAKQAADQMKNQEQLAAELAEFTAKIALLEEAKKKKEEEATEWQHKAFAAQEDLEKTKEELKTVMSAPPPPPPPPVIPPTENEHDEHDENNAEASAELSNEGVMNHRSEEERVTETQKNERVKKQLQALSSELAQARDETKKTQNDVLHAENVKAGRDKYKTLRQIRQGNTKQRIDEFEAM

No constants are given. Whether binding was seen depends on the method and setting. Binding seen in cells or lysates may run through a third protein. Some entries that bind do so weakly or less than the wild type.

This test deals with ErbB2 receptor tyrosine kinase (human (endogenous in SKBR3)) (UniProt P04626). Put plainly: proximity ligation; Duolink-II in situ PLA on fixed, permeabilized SKBR3 cells, endogenous proteins, pairs of primary antibodies; untreated or control-siRNA cells; also after 2 h 3 uM geldanamycin, or siRNA against ezrin, radixin or ErbB2 (association reduced).

For the substance ezrin (from UniProt P15311 1-586), the binding result is “binds”.
The result for radixin (from UniProt P35241 1-583) reads “binds”.
